Results as given in the supplement of paper PMC11006884.
The targets with a hit were mostly taken out for another list; the other results follow. Single values of this set are uncertain. Only a part is listed here, and it is no random draw.

Protein sequences, listed by entry. Tags and fused reporters are not part of them. Lines headed by an entry give the natural chain unless they say otherwise; changes in a name come on top.
UniProt Q15637: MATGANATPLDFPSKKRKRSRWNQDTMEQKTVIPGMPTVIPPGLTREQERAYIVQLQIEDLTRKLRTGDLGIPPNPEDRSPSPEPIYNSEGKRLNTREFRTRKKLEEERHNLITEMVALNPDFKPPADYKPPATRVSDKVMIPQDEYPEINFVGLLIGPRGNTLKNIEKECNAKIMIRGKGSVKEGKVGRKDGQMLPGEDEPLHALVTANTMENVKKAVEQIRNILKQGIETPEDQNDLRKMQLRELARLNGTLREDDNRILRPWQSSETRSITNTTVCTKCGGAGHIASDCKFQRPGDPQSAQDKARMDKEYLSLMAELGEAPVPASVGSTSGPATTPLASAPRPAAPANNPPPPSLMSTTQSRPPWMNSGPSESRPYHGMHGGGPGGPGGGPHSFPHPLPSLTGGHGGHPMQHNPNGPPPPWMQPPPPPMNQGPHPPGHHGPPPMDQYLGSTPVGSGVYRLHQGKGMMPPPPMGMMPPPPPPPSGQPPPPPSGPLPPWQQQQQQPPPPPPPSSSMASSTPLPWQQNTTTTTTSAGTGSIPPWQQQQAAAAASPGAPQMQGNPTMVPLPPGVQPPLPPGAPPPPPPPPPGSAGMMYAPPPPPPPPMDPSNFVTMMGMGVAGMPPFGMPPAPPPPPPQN
UniProt Q15022: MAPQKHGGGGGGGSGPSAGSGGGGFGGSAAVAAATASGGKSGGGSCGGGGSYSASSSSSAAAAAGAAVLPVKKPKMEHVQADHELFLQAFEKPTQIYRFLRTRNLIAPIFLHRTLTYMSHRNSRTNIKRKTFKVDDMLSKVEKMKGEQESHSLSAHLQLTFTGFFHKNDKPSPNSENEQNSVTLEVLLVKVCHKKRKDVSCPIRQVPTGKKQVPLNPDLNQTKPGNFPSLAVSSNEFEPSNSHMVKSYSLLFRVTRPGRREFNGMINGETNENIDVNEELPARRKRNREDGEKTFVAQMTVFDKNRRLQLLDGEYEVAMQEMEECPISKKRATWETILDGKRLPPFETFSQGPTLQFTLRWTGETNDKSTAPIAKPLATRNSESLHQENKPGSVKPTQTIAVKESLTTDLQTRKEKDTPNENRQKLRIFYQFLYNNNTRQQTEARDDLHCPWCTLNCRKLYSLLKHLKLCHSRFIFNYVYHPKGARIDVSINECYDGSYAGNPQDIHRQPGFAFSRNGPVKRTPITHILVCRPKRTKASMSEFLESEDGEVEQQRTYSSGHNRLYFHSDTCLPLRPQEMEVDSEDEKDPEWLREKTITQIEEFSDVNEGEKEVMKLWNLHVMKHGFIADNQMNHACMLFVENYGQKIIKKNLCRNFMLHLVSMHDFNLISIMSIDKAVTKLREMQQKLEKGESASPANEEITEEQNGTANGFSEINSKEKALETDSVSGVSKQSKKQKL
UniProt Q15276: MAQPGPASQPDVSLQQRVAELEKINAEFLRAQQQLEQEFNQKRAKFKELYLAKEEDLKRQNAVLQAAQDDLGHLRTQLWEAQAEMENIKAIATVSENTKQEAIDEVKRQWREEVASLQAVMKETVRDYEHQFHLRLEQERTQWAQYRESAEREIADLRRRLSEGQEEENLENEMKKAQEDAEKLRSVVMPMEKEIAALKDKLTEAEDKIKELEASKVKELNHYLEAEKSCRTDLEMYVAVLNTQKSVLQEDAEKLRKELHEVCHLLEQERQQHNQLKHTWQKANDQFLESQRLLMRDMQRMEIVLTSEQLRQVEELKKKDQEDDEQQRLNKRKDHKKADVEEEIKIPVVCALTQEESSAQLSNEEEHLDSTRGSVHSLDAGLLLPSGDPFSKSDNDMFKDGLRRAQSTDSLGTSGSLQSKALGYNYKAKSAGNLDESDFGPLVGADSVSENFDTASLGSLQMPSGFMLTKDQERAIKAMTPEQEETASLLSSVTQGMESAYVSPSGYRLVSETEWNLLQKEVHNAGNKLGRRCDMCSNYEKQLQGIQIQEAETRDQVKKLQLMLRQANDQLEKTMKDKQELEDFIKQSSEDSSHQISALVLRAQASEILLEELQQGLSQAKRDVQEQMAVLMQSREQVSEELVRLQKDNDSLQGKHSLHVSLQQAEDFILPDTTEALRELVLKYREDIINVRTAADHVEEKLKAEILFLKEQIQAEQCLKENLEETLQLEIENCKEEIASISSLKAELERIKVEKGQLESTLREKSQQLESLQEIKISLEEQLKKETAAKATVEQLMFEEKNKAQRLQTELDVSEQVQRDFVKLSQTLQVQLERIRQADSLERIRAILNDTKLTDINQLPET
UniProt Q15366, whole entry, looked up: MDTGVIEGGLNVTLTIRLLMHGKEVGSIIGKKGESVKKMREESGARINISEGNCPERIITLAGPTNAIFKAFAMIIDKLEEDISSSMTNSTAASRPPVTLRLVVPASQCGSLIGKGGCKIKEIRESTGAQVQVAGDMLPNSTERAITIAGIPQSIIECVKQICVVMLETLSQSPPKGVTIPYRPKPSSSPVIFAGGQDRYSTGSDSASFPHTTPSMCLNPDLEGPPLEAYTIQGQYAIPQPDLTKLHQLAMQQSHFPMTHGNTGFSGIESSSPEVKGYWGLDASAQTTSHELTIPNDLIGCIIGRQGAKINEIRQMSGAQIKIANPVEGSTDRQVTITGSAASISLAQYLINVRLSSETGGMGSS
UniProt Q15185: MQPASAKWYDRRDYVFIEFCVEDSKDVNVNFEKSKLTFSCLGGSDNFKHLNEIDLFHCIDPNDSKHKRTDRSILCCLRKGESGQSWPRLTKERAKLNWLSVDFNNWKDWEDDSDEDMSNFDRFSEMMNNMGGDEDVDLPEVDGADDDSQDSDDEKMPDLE
UniProt Q15311: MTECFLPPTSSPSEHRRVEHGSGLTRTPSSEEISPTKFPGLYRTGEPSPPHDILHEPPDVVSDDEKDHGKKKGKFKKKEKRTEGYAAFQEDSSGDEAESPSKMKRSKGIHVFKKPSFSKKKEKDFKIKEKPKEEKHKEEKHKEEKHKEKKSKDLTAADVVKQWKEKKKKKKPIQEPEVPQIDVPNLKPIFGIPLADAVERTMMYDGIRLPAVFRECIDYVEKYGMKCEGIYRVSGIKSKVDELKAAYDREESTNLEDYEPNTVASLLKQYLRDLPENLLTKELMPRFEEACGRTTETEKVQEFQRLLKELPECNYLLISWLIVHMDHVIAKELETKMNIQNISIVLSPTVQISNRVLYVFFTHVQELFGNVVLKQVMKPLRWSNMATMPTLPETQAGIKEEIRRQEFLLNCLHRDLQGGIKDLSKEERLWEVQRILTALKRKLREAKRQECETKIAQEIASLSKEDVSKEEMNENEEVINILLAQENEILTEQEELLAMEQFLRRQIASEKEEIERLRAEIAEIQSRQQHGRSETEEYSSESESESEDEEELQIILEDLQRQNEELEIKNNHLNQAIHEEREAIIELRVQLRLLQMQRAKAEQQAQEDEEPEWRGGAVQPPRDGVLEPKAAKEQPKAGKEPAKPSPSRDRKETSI
UniProt Q16576, whole entry, looked up: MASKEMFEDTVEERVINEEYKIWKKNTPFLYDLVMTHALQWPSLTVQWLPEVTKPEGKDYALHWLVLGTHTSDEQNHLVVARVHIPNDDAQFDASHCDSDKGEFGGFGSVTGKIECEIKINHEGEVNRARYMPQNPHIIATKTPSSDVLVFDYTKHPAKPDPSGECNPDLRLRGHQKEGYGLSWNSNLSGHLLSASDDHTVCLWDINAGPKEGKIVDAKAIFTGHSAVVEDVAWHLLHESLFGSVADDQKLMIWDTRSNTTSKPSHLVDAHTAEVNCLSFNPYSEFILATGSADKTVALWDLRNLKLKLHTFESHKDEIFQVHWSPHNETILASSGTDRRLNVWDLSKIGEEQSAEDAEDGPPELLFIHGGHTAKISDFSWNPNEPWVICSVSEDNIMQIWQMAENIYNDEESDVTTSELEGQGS
UniProt Q15365, whole entry, looked up: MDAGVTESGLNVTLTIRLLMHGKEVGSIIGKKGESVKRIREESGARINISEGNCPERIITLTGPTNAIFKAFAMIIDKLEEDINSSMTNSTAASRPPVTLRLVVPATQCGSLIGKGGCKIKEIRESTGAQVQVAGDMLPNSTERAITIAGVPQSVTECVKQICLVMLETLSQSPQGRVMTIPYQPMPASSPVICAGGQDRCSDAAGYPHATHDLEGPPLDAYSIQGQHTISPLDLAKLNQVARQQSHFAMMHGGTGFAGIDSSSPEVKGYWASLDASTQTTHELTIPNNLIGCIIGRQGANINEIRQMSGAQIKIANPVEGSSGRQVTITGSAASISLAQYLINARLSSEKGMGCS
UniProt Q15750: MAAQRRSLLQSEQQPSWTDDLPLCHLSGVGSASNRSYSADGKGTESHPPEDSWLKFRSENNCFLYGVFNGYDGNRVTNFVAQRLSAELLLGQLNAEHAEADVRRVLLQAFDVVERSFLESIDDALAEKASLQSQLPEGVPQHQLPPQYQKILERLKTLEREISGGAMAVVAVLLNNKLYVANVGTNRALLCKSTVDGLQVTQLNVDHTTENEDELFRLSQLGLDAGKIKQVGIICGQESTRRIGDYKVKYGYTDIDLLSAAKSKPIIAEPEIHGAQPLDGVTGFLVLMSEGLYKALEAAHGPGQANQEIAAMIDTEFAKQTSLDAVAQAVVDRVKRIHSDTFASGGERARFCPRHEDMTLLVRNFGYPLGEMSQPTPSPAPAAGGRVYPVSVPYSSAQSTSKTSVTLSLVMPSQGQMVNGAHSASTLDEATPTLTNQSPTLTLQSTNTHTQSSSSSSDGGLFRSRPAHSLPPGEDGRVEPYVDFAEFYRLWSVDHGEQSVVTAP
UniProt Q15269: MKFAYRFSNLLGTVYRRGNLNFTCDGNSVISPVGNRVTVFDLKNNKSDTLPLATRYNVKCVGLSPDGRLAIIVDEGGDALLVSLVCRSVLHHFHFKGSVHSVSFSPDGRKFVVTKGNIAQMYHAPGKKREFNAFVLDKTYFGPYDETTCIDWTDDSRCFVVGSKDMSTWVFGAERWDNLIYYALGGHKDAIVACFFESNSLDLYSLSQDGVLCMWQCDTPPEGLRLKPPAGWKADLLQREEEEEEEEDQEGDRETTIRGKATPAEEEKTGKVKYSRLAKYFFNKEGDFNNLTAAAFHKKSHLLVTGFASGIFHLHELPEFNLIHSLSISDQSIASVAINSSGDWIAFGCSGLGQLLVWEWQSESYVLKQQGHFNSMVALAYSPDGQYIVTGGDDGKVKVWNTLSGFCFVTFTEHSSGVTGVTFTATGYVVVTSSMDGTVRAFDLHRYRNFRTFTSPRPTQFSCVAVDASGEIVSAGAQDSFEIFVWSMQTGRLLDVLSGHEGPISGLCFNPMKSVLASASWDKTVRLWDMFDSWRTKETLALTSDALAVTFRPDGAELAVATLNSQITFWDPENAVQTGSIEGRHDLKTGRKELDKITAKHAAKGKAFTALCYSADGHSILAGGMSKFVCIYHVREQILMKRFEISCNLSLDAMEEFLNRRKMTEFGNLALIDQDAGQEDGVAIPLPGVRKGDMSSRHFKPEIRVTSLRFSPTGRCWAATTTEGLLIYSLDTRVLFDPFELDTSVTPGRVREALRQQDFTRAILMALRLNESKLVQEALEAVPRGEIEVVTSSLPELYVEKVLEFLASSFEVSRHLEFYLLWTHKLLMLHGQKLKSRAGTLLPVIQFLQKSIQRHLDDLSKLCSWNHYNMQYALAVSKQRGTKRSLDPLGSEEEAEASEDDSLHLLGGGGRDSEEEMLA
UniProt Q15208: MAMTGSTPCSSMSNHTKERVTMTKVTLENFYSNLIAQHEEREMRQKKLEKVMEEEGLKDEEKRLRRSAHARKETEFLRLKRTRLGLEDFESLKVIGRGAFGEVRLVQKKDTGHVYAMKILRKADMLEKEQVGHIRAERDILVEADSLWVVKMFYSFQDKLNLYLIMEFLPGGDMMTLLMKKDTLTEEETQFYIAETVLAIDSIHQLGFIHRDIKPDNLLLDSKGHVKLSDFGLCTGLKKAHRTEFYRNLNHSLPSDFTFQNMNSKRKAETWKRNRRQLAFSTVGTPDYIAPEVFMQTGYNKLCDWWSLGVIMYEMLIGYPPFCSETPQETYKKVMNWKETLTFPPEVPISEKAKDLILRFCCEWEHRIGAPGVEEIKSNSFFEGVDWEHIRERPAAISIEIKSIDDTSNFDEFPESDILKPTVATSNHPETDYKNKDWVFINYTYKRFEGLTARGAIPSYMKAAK
UniProt Q15181: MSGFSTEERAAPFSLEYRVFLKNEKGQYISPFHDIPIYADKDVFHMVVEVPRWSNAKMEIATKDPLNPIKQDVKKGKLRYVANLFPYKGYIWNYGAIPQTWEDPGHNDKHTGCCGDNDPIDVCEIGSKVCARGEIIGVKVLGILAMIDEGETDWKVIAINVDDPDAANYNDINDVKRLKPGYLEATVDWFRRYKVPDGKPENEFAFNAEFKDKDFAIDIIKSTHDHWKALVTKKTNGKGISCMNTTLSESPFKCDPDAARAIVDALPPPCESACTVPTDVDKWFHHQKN

Compound: COC(=O)/C=C/c1ccccc1 [methyl cinnamate]
Experiment: log2 ratio of iodoacetamide-alkyne labeling of the cysteine site, DMSO over compound (competition); higher = stronger covalent engagement of the cysteine by the compound, active = 1 or more
Settings: 500 µM; treatment time 1 h; system: HEK293T cell lysate
Outline: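 HEK293T lysate at 2 mg/mL was treated with vehicle or electrophile (500 µM) for 1 h at ambient temperature, then labelled with iodoacetamide alkyne (1 h), clicked to sCIP-TMT reagents, pooled, digested with trypsin overnight at 37 °C, enriched on streptavidin and eluted with acid. Peptides were analysed by Orbitrap Eclipse LC-MS/MS with FAIMS and quantified in FragPipe, using duplicate channels and three replicates, with cysteines quantified in only one replicate excluded. The log2 competition ratio for each cysteine is the mean control-channel reporter intensity divided by the mean compound-channel reporter intensity.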

log2 ratio of iodoacetamide-alkyne labeling, inactive:
SF1 C292 (UniProt Q15637) 0.165
SUZ12 C46 (UniProt Q15022) -0.171
RABEP1 C536 (UniProt Q15276) 0.12
PCBP2 C109 (UniProt Q15366) 0.242
PTGES3 C58 (UniProt Q15185) 0.231
RALBP1 C451 (UniProt Q15311) 0.278
RBBP7 C202 (UniProt Q16576) 0.0827
UniProt Q15149_C3299 0.24
UniProt Q15365_C118 0.52
UniProt Q15750_C24 0.0964
SF1 C282 (UniProt Q15637) 0.165
PWP2 C24 (UniProt Q15269) 0.0555
DECR1 C116 (UniProt Q16698) 0.337
UniProt Q15208_C9 0.343
PPA1 C114 (UniProt Q15181) 0.102
PDS5A C93 (UniProt Q29RF7) -0.079

Random excerpt: two entries already listed.
log2 ratio of iodoacetamide-alkyne labeling, inactive:
UniProt Q15365_C118 0.52
SF1 C282 (UniProt Q15637) 0.165
